The source of these data is PubChem BioAssay AID2685 (National Center for Advancing Translational Sciences (NCATS), 2010).

The experiment is described as follows: qHTS Assay for Lipid Storage Modulators in Drosophila S3 Cells.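 On cell number change: cells counted by Cell Tracker Red CMTPX staining in the red channel.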 The conditions noted are these: BODIPY lipid droplet fluorescence, 18-24 h; for cell number change: measured here: cell count max response, cells fed with added oleic acid. A digest of the protocol: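 Drosophila S3 cells got compounds at several concentrations plus oleic acid (400 uM solution). Laser-scanning cytometry with 488 nm excitation read lipid droplets at 500-530 nm and cells at 575-640 nm. Percent activity was relative to 20 uM Triacsin C.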

[1] abbreviates: measured here: lipid fluorescence (Fed channel) AC50, cells fed with added oleic acid.
[2] abbreviates: measured here: cell number channel AC50, cells fed with added oleic acid.

Some of the results follow. Further columns of the screen follow, without active or inactive calls. The list favours compounds with an active or inconclusive main result. Words in brackets tell the shape of the fitted curve; partial curves, single points and poor fits give uncertain potencies.

For the compound `COCCNC(=O)CN(c1ccc(C)cc1)S(=O)(=O)c1ccc(SC)cc1`, the cell number change is -0.701%. In addition, under setting [1], the AC50 is 1.3 µM [rising, full curve, poor fit].
For `Cc1ccc(NC(=O)CCn2ccc([N+](=O)[O-])n2)nc1`, the cell number change is -1.8%. Moreover, the AC50 under setting [1] is 16.4 µM [rising, partial curve].
In the case of `C(=N\Nc1ncnc2ccccc12)/c1ccccc1`, the cell number change came to 83.2%. Moreover, the half-maximal activity concentration (AC50) under setting [2] was 10.3 µM [rising, partial curve, poor fit].
`CCOC(=O)c1sc2nc(C)nc(SCC(=O)N(C)C3CCS(=O)(=O)C3)c2c1C` (centres undefined): the cell number change was -6.4%. Moreover, the AC50 under setting [1] is 0.82 µM [rising, single point].
As to `Cc1ccc(CNC(=O)c2ccc(N(C)S(=O)(=O)c3ccccc3)cc2)cc1`, the cell number change was -17.1%. Under setting [2], the AC50 is 0.517 µM [falling, partial curve, poor fit]. The concentration at half-maximal activity (AC50) under setting [1] is 0.206 µM [falling, single point].
In the case of `Cc1noc2ncnc(Sc3ccc(Cl)cc3)c12`, the cell number change is -52.2%. The concentration at half-maximal activity (AC50) under setting [2] was 4.11 µM [falling, full curve]. Further, the AC50 under setting [1] was 2.59 µM [falling, full curve].
For `COc1ccc(C(=O)Cn2nnc(-c3ccc(N4CCOCC4)cc3)n2)cc1OC`, the cell number change was determined as 7.73%. Moreover, the AC50 under setting [2] is 0.92 µM [rising, full curve]. Moreover, the AC50 under setting [1] was 0.58 µM [rising, single point].
For the compound `CCOC(=O)c1ccc(N=c2sc(C(=O)OC)cc(=O)n2Cc2ccco2)cc1`, the cell number change is -8.38%. Moreover, the AC50 under setting [1] is 23.1 µM [falling, single point].
Consider `O=C(COC(=O)[C@@H]1CCCN1S(=O)(=O)c1ccc(Cl)cc1)NCC(F)(F)F`, for which the cell number change was -66.7%. Further, the AC50 under setting [2] was 29.1 µM [falling, single point]. Further, the AC50 under setting [1] is 0.92 µM [falling, full curve, poor fit].
Consider `CC12CC3CC(C)(C1)CC(C(=O)NNC(=O)c1ccncc1)(C3)C2`, for which the cell number change turned out to be 1.18%. The AC50 under setting [1] is 1 µM [rising, full curve, poor fit].
Consider `COc1ccccc1NC(=O)Nc1ccccc1Br`, for which the cell number change is -8.86%. Moreover, under setting [1], the AC50 is 20.6 µM [rising, single point].
For `O=C(N/C=C/c1ccco1)OCc1ccccc1`, the cell number change was -21.4%.
On to `CN(CC(=O)Nc1ccccc1C(=O)NC1CC1)Cc1ccccc1F`, for which the cell number change worked out at 50%. Moreover, under setting [2], the AC50 was 3.26 µM [falling, single point]. Also, under setting [1], the AC50 is 29.1 µM [falling, single point].
Take `O=C(O)C1=C[C@@H](c2ccc(C(F)(F)F)cc2)C[C@@H](OCc2ccc(CO)cc2)O1`: the cell number change amounted to 10.1%. The AC50 under setting [1] is 11.6 µM [rising, single point].
With `CN(C)Cc1n[nH]c(=O)c2ccccc12`, the cell number change is -56.4%. Besides, the AC50 under setting [2] was 0.0731 µM [falling, full curve, poor fit].
Consider `Cc1ccc(Oc2ccc(C=O)cn2)cc1`, for which the cell number change was -44.7%. The AC50 under setting [2] is 9.2 µM [falling, partial curve, poor fit]. Moreover, the AC50 under setting [1] was 18.4 µM [falling, single point].
For `Cc1sccc1/C=N/NC(=O)c1ccco1`, the cell number change stood at 21.6%. Further, the AC50 under setting [1] was 0.58 µM [falling, single point].
As for `O=C(CS(=O)(=O)c1cn(Cc2ccc(Cl)cc2)c2ccccc12)N1CCCC1`, the cell number change was -16.5%. The concentration at half-maximal activity (AC50) under setting [1] is 5.17 µM [rising, full curve].
As for `Cn1c(CCN2CCCCC2)nc2cc(NC(=O)COc3ccc(Cl)cc3)ccc21`, under setting [1], the concentration at half-maximal activity (AC50) was 4.11 µM [rising, single point].
With `COc1cccc(NC(=O)c2oc3ccccc3c2NC(=O)C2CC2)c1`, the AC50 by setting is: under setting [2], 6.51 µM [rising, single point]; under setting [1], 6.51 µM [rising, single point].
With `Cn1c(=O)c(=O)n(C)c2cc(S(=O)(=O)NCCOc3ccccc3Cl)ccc21`, the cell number change was -25.2%.
Turning to `COc1ccc(Br)cc1-c1noc(-c2ccccc2)n1`, the half-maximal activity concentration (AC50) runs as follows: under setting [2], 2.06 µM [rising, partial curve]; under setting [1], 2.31 µM [rising, partial curve].
As to `Cc1cc(-n2c(C)cc(C(=O)CSc3ncnc4ccccc34)c2C)no1`, the cell number change is -24.6%. Further, under setting [1], the AC50 was 0.164 µM [rising, partial curve, poor fit].
Regarding `CCN(CCNC(=O)C1CCN(Cc2nc(-c3cccc(Cl)c3)oc2C)CC1)c1ccccc1`, the cell number change was -27.7%. Also, under setting [2], the concentration at half-maximal activity (AC50) is 0.0082 µM [falling, full curve, poor fit].
`COc1ccc(NCC(=O)N/N=C/c2c(C)nn(Cc3ccccc3)c2Cl)cc1`: the cell number change was determined as 11.3%. The AC50 under setting [1] was 5.8 µM [rising, full curve].
For `COC(=O)CN(C)C(=O)c1ccc2nc(Cc3cccc(Cl)c3)oc2c1`, the cell number change was 20.8%. Moreover, the AC50 under setting [1] is 8.2 µM [rising, partial curve].
For `Cc1ccc(NC(=O)c2sc(Cl)nc2C)c(C)c1`, the cell number change amounted to 83.3%. In addition, under setting [2], the AC50 was 29.1 µM [rising, single point].
As for `CC(C)(C)c1ccc(C(=O)N/C(=C\c2cccs2)C(=O)N2CCOCC2)cc1`, the cell number change is 7.83%.
As for `CCC(CC)C(=O)c1c[nH]c(C(=O)NCc2ccccc2)c1`, the cell number change is 16.7%. Besides, the AC50 under setting [1] was 3.66 µM [rising, single point].
Take `O=C(CSc1ncccc1-c1nc2ccccc2[nH]1)N1CCCCC1`: the cell number change was -13.8%. Further, the AC50 under setting [1] was 1.16 µM [rising, full curve, poor fit].
As for `CCSS(=O)(=O)c1cccc2cccnc12`, the cell number change is -32.5%. Besides, the AC50 under setting [1] is 18.4 µM [falling, single point].
For the compound `O=C(O)COc1ccc(NC(=O)c2ccco2)cc1`, the cell number change is -10.5%. Also, the AC50 under setting [2] was 5.8 µM [falling, single point]. Also, the concentration at half-maximal activity (AC50) under setting [1] is 6.51 µM [falling, single point].
Turning to `CC1=C(C(=O)Nc2ccccc2)C(c2ccc(N(C)C)cc2)NC(=O)N1` (centres undefined), the cell number change is -36.9%. Besides, the AC50 under setting [2] was 0.206 µM [falling, full curve]. Under setting [1], the AC50 was 4.61 µM [falling, full curve].
Take `O=C(CNC(=O)c1cccc(Cl)c1)N/N=C/C=C/c1ccccc1`: the cell number change amounted to 52.5%. Further, the AC50 under setting [2] is 0.164 µM [rising, full curve, poor fit]. Also, under setting [1], the AC50 was 6.51 µM [rising, single point].
As for `COc1ccc2nc(/C=N/NC(=O)CCCCCNC(=O)OC(C)(C)C)ccc2c1`, the cell number change turned out to be 17.8%. For the same compound, the AC50 under setting [2] was 0.58 µM [rising, full curve, poor fit].
As for `CC1(C)Cc2nc3sc(C(=O)NCCCO)c(N)c3cc2CS1`, the cell number change was -6.37%.
In the case of `Nc1ccccc1C(O)(Cc1ccccc1)c1ccccc1` (centres undefined), the cell number change was -31.6%. Moreover, the AC50 under setting [2] was 29.1 µM [falling, single point]. In addition, the AC50 under setting [1] is 29.1 µM [falling, single point].
In the case of `CCCN(CC1CCCO1)C(=O)c1cc(COc2cccc(OC)c2)on1` (centres undefined), the cell number change was -5.6%.
Turning to `CCc1ccc(NC(=O)CN2C(=O)CC(C)S(=O)(=O)c3ccccc32)cc1` (centres undefined), the AC50 under setting [1] is 29.1 µM [falling, single point].
With `COc1cc(/C=C/c2c([N+](=O)[O-])c(=O)n(C)c(=O)n2C)cc(OC)c1OC`, the cell number change is 54.8%. In addition, under setting [2], the AC50 was 9.2 µM [rising, partial curve]. Under setting [1], the AC50 is 2.06 µM [rising, partial curve].
In the case of `CCOC(=O)CCCSc1nc2sc3c(c2c(=O)[nH]1)CCC3`, the cell number change came out at 13%. In addition, the AC50 under setting [1] is 4.11 µM [falling, single point].
Take `COc1ccc(-c2nc(-c3ccc(Br)o3)no2)cc1OC`: the cell number change is -32.9%. In addition, the AC50 under setting [1] was 29.1 µM [falling, single point].
On to `Cc1cccc(NC(=O)c2ccc(F)c(S(=O)(=O)N3CCC4(CC3)OCCO4)c2)c1`, for which the cell number change was -25.4%. In addition, under setting [1], the AC50 is 29.1 µM [falling, single point].
`CCOC(=O)N1CCC(NC(=O)CSCc2nc(-c3ccccc3Cl)oc2C)CC1`: the cell number change was -12.1%. Also, the AC50 under setting [2] was 4.11 µM [falling, single point]. The AC50 under setting [1] was 5.8 µM [falling, single point].
As to `O=C(CSCc1ccco1)c1cccs1`, the cell number change came to 7.33%.
As to `COC(=O)N(C)CCCC1(C)C(=O)N(C)c2ccc(O)cc21` (centres undefined), the cell number change was 11%. Further, the AC50 under setting [2] was 0.82 µM [falling, single point].
For `CCN1CCN(C(=O)NS(=O)(=O)c2ccc(C)cc2)CC1`, the cell number change was -13.9%. Besides, the AC50 under setting [1] was 0.58 µM [falling, single point].
As for `Cc1ccc(C(=O)N2CC(C(=O)O)C2)cc1`, the cell number change was -0.615%. The AC50 under setting [1] is 6.51 µM [falling, single point].
`O=C(c1ccc(CS(=O)Cc2ccc(Cl)cc2)o1)N1CCN(c2ccccc2F)CC1` (centres undefined): the AC50 under setting [1] is 0.326 µM [falling, single point].
For `CC(=O)c1cc2c(cc1NC(=O)c1cnc(C)cn1)OCO2`, the cell number change was 18.8%. In addition, the AC50 under setting [1] is 0.184 µM [rising, full curve, poor fit].
Consider `COc1ccccc1Cn1c(=S)[nH]c2cc(C(=O)NCc3cccnc3)ccc2c1=O`, for which the cell number change was determined as 21.6%. In addition, under setting [2], the AC50 is 0.082 µM [falling, full curve, poor fit].
For `Nc1n[nH]c(C(F)(F)F)c1-c1ccccc1`, the AC50 is, setting by setting: under setting [2], 0.82 µM [falling, single point]; under setting [1], 0.651 µM [falling, full curve].
In the case of `CC1(C(=O)O)COC(c2ccc([N+](=O)[O-])cc2)OC1` (centres undefined), the cell number change is -5.79%. Further, the AC50 under setting [1] was 6.51 µM [falling, single point].
On to `C=CCc1cccc(/C=N/NC(=O)CCCNc2ccc(C)cc2)c1O`, for which the cell number change is -66.4%. Besides, the AC50 under setting [2] was 13 µM [falling, partial curve]. Also, the concentration at half-maximal activity (AC50) under setting [1] was 14.6 µM [falling, partial curve].
As for `CCN(CC)CCNC(=O)c1cc2c(=O)n(C)c3ccccc3c2n1C`, under setting [1], the AC50 was 0.184 µM [falling, full curve].
As to `COc1ccc(NC(=O)C(c2ccccc2)N(C)C(=O)c2cnccn2)cc1` (centres undefined), the cell number change was determined as 5.34%. The half-maximal activity concentration (AC50) under setting [1] is 5.8 µM [rising, partial curve].
Turning to `O=C(O)c1ccc(S(=O)(=O)NCC2CCCCC2)cc1`, the cell number change was -7.91%. Further, the concentration at half-maximal activity (AC50) under setting [1] was 6.51 µM [rising, single point].
Consider `COc1ccc(C2N=C(N)N=C(N)N2c2ccccc2)cc1OC` (centres undefined), for which the cell number change turned out to be 2.78%. Besides, the AC50 under setting [2] is 0.0259 µM [rising, full curve, poor fit].
